Test results: the supplement of paper PMC10849652
This is one part of the list.

Protein sequences, listed by entry. Tags and fused reporters are not part of them. Lines headed by an entry give the natural chain unless they say otherwise; changes in a name come on top.
UniProt Q9GZS1, whole entry, looked up: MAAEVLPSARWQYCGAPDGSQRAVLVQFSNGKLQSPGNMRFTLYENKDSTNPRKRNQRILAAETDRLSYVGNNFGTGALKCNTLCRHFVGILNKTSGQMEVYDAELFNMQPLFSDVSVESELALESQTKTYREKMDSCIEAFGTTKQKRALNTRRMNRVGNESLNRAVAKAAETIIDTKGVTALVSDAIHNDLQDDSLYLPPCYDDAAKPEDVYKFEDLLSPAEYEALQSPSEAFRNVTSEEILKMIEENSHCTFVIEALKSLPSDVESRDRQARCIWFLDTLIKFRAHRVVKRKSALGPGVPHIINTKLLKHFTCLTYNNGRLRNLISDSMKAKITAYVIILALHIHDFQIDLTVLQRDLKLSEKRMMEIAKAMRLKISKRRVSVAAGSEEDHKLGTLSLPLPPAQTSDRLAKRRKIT
UniProt P62937, whole entry, looked up: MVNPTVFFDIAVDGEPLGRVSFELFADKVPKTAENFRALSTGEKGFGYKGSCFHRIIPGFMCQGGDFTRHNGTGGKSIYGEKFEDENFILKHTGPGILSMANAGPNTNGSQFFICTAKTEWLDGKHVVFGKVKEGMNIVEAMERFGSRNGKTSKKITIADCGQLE
UniProt Q9Y535: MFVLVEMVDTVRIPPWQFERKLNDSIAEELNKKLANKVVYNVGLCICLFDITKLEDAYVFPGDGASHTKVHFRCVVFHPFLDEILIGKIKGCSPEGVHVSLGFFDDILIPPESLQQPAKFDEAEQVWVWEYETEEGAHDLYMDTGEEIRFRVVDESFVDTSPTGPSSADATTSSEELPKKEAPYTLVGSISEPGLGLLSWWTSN
UniProt O15305: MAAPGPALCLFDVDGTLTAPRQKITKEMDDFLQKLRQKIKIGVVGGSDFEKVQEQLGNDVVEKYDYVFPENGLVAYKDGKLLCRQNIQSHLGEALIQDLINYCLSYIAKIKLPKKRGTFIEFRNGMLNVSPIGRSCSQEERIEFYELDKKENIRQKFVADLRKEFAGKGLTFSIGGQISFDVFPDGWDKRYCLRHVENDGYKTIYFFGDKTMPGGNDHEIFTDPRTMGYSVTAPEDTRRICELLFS
UniProt Q68D20: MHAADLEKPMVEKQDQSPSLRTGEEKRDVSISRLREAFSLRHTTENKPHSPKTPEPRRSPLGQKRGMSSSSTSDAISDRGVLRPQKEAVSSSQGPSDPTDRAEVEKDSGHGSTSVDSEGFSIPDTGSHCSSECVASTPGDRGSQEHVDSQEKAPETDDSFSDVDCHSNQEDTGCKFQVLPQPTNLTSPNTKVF
UniProt O75817: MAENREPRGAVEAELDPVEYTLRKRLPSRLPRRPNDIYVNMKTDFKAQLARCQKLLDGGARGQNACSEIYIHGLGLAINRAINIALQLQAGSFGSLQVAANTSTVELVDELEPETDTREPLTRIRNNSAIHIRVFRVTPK
UniProt Q8N490: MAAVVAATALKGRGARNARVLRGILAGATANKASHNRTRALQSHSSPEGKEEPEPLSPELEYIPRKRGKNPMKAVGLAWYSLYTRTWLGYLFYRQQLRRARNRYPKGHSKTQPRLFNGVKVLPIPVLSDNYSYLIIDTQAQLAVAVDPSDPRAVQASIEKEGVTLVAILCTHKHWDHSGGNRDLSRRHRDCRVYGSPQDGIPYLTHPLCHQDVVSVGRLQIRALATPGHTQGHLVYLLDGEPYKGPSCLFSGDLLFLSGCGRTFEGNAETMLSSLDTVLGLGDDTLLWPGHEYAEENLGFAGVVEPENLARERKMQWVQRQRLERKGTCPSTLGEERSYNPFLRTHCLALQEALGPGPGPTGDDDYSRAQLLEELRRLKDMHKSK
UniProt Q9NQ55: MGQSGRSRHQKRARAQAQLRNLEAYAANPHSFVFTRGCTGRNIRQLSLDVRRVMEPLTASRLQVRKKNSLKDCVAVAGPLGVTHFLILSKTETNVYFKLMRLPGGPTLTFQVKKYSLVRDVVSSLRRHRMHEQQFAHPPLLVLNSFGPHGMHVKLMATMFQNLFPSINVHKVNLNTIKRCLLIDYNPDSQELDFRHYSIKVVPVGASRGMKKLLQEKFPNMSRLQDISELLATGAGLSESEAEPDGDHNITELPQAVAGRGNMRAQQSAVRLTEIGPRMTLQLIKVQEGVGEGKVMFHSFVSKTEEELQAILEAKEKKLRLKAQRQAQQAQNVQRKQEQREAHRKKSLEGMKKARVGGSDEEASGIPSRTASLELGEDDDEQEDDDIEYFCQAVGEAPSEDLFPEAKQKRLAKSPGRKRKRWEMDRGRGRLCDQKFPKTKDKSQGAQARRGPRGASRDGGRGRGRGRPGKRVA
UniProt Q9H1D9: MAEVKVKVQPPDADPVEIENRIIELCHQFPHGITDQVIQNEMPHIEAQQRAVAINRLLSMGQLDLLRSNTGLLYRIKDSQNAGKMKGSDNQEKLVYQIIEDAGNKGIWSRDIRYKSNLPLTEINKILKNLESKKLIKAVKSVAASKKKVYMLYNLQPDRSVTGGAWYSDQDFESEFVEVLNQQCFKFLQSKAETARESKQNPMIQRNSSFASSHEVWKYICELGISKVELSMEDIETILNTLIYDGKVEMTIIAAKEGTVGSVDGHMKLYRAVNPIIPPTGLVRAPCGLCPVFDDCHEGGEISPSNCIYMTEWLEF
UniProt O15162: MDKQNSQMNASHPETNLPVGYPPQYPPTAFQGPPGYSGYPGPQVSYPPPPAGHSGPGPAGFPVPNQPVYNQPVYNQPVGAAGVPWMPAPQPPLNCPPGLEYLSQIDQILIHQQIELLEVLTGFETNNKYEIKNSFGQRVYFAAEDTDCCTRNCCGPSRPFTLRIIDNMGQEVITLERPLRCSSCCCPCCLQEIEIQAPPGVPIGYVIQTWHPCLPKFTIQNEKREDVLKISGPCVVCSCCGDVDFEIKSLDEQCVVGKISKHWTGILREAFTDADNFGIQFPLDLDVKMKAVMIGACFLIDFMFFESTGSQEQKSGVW
UniProt Q9NRF9: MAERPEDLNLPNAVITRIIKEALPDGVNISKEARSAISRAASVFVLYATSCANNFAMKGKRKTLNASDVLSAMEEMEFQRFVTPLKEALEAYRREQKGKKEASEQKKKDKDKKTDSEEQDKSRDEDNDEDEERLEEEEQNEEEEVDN
UniProt Q15165: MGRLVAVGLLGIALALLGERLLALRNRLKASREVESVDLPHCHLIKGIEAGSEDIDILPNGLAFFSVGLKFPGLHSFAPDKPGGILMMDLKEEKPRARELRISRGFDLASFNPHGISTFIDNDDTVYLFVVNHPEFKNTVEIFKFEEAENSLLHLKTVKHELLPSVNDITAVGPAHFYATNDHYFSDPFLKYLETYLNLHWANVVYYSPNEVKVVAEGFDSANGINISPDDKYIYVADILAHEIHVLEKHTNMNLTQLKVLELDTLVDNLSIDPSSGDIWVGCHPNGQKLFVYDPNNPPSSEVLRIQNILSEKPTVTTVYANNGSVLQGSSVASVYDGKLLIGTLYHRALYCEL
UniProt Q9Y2S7: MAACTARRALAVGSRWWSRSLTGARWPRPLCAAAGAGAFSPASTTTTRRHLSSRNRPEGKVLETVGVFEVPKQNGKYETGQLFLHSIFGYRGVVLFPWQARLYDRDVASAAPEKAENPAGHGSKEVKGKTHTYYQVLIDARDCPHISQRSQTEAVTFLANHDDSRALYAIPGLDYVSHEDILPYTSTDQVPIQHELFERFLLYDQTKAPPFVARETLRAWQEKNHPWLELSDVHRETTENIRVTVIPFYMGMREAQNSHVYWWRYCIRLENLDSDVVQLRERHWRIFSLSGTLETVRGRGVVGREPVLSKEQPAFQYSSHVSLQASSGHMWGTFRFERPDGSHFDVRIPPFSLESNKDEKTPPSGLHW
UniProt Q04941: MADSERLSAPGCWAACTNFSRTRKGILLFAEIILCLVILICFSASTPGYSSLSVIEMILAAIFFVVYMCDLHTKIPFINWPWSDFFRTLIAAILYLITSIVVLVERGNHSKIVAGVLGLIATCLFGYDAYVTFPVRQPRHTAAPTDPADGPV
UniProt Q9HAB8: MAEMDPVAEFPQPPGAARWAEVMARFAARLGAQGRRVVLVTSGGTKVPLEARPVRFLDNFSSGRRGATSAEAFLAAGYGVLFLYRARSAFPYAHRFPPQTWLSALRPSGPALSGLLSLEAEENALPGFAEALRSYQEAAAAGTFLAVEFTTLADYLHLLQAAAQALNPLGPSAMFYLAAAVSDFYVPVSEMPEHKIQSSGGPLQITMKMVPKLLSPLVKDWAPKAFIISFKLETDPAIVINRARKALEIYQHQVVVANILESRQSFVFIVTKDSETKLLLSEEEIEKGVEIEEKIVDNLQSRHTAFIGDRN
UniProt Q9BY77: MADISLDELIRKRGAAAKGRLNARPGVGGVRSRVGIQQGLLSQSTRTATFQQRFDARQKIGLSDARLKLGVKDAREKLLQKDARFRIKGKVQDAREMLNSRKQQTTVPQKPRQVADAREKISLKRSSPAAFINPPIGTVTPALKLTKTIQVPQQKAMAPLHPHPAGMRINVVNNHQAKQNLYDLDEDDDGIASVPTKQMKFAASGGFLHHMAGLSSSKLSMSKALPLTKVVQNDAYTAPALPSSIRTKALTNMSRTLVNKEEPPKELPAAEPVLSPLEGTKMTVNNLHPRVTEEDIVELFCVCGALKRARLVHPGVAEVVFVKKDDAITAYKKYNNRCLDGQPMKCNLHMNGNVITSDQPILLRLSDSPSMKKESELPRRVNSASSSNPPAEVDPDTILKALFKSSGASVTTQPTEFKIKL
UniProt O15160, whole entry, looked up: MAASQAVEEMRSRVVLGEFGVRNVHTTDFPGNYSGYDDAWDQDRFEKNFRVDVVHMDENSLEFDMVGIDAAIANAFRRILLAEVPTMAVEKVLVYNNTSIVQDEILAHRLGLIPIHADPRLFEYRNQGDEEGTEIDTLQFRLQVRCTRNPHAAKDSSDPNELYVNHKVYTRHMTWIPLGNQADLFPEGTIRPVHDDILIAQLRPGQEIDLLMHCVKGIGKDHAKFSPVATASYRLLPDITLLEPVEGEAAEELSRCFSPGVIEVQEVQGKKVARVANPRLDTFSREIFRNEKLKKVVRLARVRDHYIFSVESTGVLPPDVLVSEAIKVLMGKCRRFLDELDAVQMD
UniProt Q9NW61: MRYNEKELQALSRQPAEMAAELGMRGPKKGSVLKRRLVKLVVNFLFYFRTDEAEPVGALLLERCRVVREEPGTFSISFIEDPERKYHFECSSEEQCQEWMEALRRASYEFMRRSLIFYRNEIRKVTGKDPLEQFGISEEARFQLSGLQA
UniProt Q9HCU8: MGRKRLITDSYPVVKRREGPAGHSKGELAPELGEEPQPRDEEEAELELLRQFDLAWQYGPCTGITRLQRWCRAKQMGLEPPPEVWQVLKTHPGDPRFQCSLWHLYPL
UniProt P54277: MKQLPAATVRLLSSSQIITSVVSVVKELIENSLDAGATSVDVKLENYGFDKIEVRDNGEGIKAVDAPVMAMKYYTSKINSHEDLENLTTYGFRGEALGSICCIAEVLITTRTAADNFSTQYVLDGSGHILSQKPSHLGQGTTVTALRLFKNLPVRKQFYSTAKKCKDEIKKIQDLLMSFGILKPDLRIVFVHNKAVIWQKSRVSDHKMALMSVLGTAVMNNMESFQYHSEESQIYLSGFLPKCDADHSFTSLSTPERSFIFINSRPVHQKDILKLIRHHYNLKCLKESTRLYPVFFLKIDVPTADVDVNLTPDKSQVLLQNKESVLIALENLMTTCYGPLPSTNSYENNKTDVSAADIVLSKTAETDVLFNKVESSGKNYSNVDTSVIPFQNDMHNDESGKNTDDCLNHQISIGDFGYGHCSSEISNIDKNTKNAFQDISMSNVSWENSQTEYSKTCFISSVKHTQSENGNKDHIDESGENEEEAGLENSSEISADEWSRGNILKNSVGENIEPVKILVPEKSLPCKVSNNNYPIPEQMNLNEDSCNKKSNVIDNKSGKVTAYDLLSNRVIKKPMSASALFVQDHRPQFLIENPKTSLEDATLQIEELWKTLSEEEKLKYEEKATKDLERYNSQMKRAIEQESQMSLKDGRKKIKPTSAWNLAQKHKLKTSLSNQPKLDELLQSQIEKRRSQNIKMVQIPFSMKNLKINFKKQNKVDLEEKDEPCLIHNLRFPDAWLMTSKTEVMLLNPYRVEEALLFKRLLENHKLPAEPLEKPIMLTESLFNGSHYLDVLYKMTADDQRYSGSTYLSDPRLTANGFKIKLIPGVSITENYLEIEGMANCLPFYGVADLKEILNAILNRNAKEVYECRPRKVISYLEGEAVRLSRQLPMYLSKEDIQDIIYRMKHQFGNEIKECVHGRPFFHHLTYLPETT
UniProt Q86V59: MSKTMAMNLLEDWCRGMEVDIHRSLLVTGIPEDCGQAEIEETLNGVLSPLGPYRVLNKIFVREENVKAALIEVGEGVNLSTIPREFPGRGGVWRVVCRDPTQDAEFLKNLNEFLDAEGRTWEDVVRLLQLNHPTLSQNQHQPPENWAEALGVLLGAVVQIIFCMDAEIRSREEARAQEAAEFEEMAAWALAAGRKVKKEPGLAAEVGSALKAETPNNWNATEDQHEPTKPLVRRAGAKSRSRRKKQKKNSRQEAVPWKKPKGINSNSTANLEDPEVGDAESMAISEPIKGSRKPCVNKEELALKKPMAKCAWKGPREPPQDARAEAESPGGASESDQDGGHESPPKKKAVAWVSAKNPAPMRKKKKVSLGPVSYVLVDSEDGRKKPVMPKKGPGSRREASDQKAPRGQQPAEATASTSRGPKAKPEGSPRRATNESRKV

Legend:
Experiment in all cases: log2 fold change, soluble protein after heating vs DMSO (PISA); higher = thermal stabilisation; K562 lysate, 10 uM; active = over 0.2 and 3.5 SD of the protein, either way, in both replicates (recomputed)
lapatinib = compound: CS(=O)(=O)CCNCc1ccc(-c2ccc3ncnc(Nc4ccc(OCc5cccc(F)c5)c(Cl)c4)c3c2)o1 [lapatinib]
Summary of the method: (§1)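 The values are log-two fold changes in thermal stability compared with solvent controls and come from duplicates. They were obtained by TMTpro 16plex LC-MS/MS, with channel sums equalised, on the supernatant after 21,000xg for 90 min. That supernatant came from crude K562 extract at 1 mg/mL protein treated with 10 μM compound for 30 min, heated for 3 min across 48°C-58°C, pooled and brought to 0.5% NP-40 at 4°C.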

pictilisib = compound: CS(=O)(=O)N1CCN(Cc2cc3nc(-c4cccc5[nH]ncc45)nc(N4CCOCC4)c3s2)CC1 [pictilisib]
Summary of the method: as §1

crizotinib = compound: C[C@@H](Oc1cc(-c2cnn(C3CCNCC3)c2)cnc1N)c1c(Cl)ccc(F)c1Cl [crizotinib]
Summary of the method: as §1

[1] = compound: C[C@H](C1=CC=C(C=C1)C(=O)NC2=C3C=CNC3=NC=C2)N
Summary of the method: as §1

duvelisib = compound: C[C@H](Nc1ncnc2nc[nH]c12)c1cc2cccc(Cl)c2c(=O)n1-c1ccccc1 [duvelisib]
Summary of the method: as §1

gandotinib = compound: Cc1cc(Nc2cc(CN3CCOCC3)c3nc(C)c(Cc4ccc(Cl)cc4F)n3n2)n[nH]1 [gandotinib]
Summary of the method: as §1

tozasertib = compound: Cc1cc(Nc2cc(N3CCN(C)CC3)nc(Sc3ccc(NC(=O)C4CC4)cc3)n2)n[nH]1 [tozasertib]
Summary of the method: as §1

doramapimod = compound: Cc1ccc(-n2nc(C(C)(C)C)cc2NC(=O)Nc2ccc(OCCN3CCOCC3)c3ccccc23)cc1 [doramapimod]
Summary of the method: as §1

bafetinib = compound: Cc1ccc(NC(=O)c2ccc(CN3CC[C@H](N(C)C)C3)c(C(F)(F)F)c2)cc1Nc1nccc(-c2cncnc2)n1 [bafetinib]
Summary of the method: as §1

[2] = compound: Cc1cccc(CC(=O)N2CCc3c2ccc(-c2cn(C)c4ncnc(N)c24)c3F)n1
Summary of the method: as §1

Measured: log2 fold change

POLR1E (UniProt Q9GZS1)
inactive: lapatinib -0.033 | pictilisib -0.028 | crizotinib -0.016 | [1] 0.02 | duvelisib 0 | gandotinib -0.054 | tozasertib 0.047 | doramapimod -0.004 | bafetinib -0.061 | [2] -0.027

PPIA (UniProt P62937)
inactive: lapatinib 0.007 | pictilisib -0.009 | crizotinib 0.023 | [1] 0.02 | duvelisib -0.011 | gandotinib -0.02 | tozasertib 0.051 | doramapimod 0.008 | bafetinib 0.039 | [2] -0.019

POLR2B (UniProt P30876)
inactive: lapatinib 0.009 | pictilisib -0.048 | crizotinib -0.054 | [1] -0.032 | duvelisib 0.001 | gandotinib -0.018 | tozasertib -0.016 | doramapimod 0.046 | bafetinib -0.067 | [2] 0.036

PMS2 (UniProt P54278)
inactive: lapatinib 0.016 | pictilisib 0.021 | crizotinib -0.038 | [1] -0.036 | duvelisib 0 | gandotinib -0.064 | tozasertib -0.014 | doramapimod -0.038 | bafetinib 0.021 | [2] 0.037

POLR3H (UniProt Q9Y535)
inactive: lapatinib -0.039 | pictilisib -0.019 | crizotinib -0.082 | [1] -0.191 | duvelisib 0.162 | gandotinib 0.022 | tozasertib -0.048 | doramapimod -0.047 | bafetinib -0.023 | [2] 0.084

PMM2 (UniProt O15305)
inactive: lapatinib -0.031 | pictilisib -0.006 | crizotinib -0.001 | [1] -0.075 | duvelisib -0.013 | gandotinib 0.037 | tozasertib -0.011 | doramapimod 0.055 | bafetinib 0.018 | [2] 0.056

POLR2I (UniProt P36954)
inactive: lapatinib 0.036 | pictilisib 0.006 | crizotinib 0.058 | [1] 0.05 | duvelisib 0.019 | gandotinib -0.034 | doramapimod 0.046 | bafetinib -0.127 | [2] -0.037

PMS2CL (UniProt Q68D20)
inactive: lapatinib 0.066 | pictilisib 0.013 | crizotinib 0.015 | doramapimod 0.013 | bafetinib -0.204

Copied from above (two entries):
POLR3H (UniProt Q9Y535)
inactive: lapatinib -0.039 | pictilisib -0.019 | crizotinib -0.082 | [1] -0.191 | duvelisib 0.162 | gandotinib 0.022 | tozasertib -0.048 | doramapimod -0.047 | bafetinib -0.023 | [2] 0.084

PMM2 (UniProt O15305)
inactive: lapatinib -0.031 | pictilisib -0.006 | crizotinib -0.001 | [1] -0.075 | duvelisib -0.013 | gandotinib 0.037 | tozasertib -0.011 | doramapimod 0.055 | bafetinib 0.018 | [2] 0.056

Remaining list, next part.

POP7 (UniProt O75817)
inactive: lapatinib 0.002 | pictilisib -0.018 | crizotinib 0.018 | [1] 0.063 | duvelisib -0.016 | gandotinib 0.117 | tozasertib -0.009 | doramapimod 0.015 | bafetinib -0.12 | [2] 0.016

PNKD (UniProt Q8N490)
inactive: lapatinib 0.029 | pictilisib -0.093 | crizotinib -0.022 | [1] -0.076 | duvelisib 0.067 | gandotinib -0.001 | tozasertib -0.174 | doramapimod 0.017 | bafetinib 0.094 | [2] -0.045

PPAN isoform 3 (UniProt Q9NQ55)
inactive: lapatinib 0.002 | pictilisib 0.018 | crizotinib -0.083 | [1] -0.078 | duvelisib -0.006 | gandotinib 0.012 | tozasertib -0.039 | doramapimod 0.068 | bafetinib -0.042 | [2] 0.099

POFUT1 (UniProt Q9H488)
inactive: lapatinib 0.058 | pictilisib 0.035 | crizotinib 0.041 | [1] 0.02 | duvelisib -0.025 | gandotinib -0.016 | tozasertib -0.004 | doramapimod -0.049 | bafetinib -0.026 | [2] -0.019

POLR3F (UniProt Q9H1D9)
inactive: lapatinib 0.017 | pictilisib -0.014 | crizotinib 0.005 | [1] -0.005 | duvelisib 0.049 | gandotinib 0.004 | tozasertib 0.041 | doramapimod -0.001 | bafetinib -0.003 | [2] -0.036

POTEKP (UniProt Q9BYX7)
inactive: lapatinib -0.195 | pictilisib -0.122 | crizotinib -0.113 | duvelisib 0.812 | doramapimod 1.05 | bafetinib 0.613

POLR2D (UniProt O15514)
inactive: lapatinib -0.025 | pictilisib -0.087 | crizotinib 0.007 | [1] 0.085 | duvelisib -0.025 | gandotinib 0.05 | tozasertib 0.023 | doramapimod -0.034 | bafetinib -0.104 | [2] -0.035

PLSCR1 (UniProt O15162)
inactive: lapatinib -0.029 | pictilisib -0.038 | crizotinib 0.028 | [1] -0.087 | duvelisib 0.01 | gandotinib 0.121 | tozasertib -0.068 | doramapimod 0.021 | bafetinib -0.05 | [2] 0.087

POLE3 (UniProt Q9NRF9)
inactive: lapatinib 0.012 | pictilisib 0.054 | crizotinib 0.049 | [1] 0.004 | duvelisib 0.013 | gandotinib 0.041 | tozasertib -0.038 | doramapimod -0.007 | bafetinib 0.034 | [2] -0.001

PON2 (UniProt Q15165)
inactive: lapatinib -0.033 | pictilisib 0.01 | crizotinib -0.008 | [1] 0.084 | duvelisib -0.065 | gandotinib -0.021 | tozasertib -0.035 | doramapimod -0.016 | bafetinib -0.048 | [2] -0.074

POLDIP2 (UniProt Q9Y2S7)
inactive: lapatinib 0.01 | pictilisib -0.081 | crizotinib -0.013 | [1] -0.001 | duvelisib -0.001 | gandotinib -0.023 | tozasertib 0.025 | doramapimod -0.014 | bafetinib -0.02 | [2] 0.007

PLP2 (UniProt Q04941)
inactive: lapatinib 0.009 | pictilisib -0.064 | crizotinib -0.069 | [1] 0.03 | duvelisib -0.258 | gandotinib -0.031 | tozasertib -0.053 | doramapimod 0.014 | bafetinib 0.157 | [2] 0.044

PPCS (UniProt Q9HAB8)
inactive: lapatinib -0.007 | pictilisib -0.035 | crizotinib -0.057 | [1] -0.008 | duvelisib 0.009 | gandotinib -0.086 | tozasertib -0.008 | doramapimod 0.006 | bafetinib -0.042 | [2] -0.044

POLDIP3 (UniProt Q9BY77)
inactive: lapatinib 0.024 | pictilisib 0.027 | crizotinib -0.001 | [1] -0.209 | duvelisib -0.057 | gandotinib 0.199 | doramapimod 0.113 | bafetinib -0.033 | [2] 0.062

POLR1C (UniProt O15160)
inactive: lapatinib -0.027 | pictilisib -0.018 | crizotinib -0.014 | [1] 0.045 | duvelisib -0.01 | gandotinib -0.05 | tozasertib 0.009 | doramapimod -0.018 | bafetinib -0.081 | [2] -0.018

POMGNT1 isoform 2 (UniProt Q8WZA1)
inactive: lapatinib -0.02 | pictilisib 0.065 | crizotinib 0.009 | [1] -0.13 | duvelisib -0.151 | gandotinib 0.092 | tozasertib 0.06 | doramapimod 0.005 | bafetinib -0.231 | [2] 0.11

PLXNA3 (UniProt P51805)
inactive: lapatinib -0.086 | pictilisib 0.011 | crizotinib -0.266 | [1] -0.413 | gandotinib 0.114 | tozasertib 0.096 | doramapimod -0.004 | bafetinib -0.211 | [2] 0.196

POLR2J (UniProt P52435)
inactive: lapatinib 0.017 | pictilisib 0.011 | crizotinib -0.061 | duvelisib 0.063 | tozasertib 0.056 | doramapimod 0.045 | bafetinib -0.13

POLR3B (UniProt Q9NW08)
inactive: lapatinib -0.014 | pictilisib -0.056 | crizotinib 0.019 | [1] 0.019 | duvelisib 0.014 | gandotinib -0.05 | tozasertib -0.014 | doramapimod -0.006 | bafetinib -0.041 | [2] -0.033

PLEKHJ1 (UniProt Q9NW61)
inactive: crizotinib -0.048 | [1] -0.031 | gandotinib -0.101 | doramapimod 0.031 | [2] 0.066

POLD4 (UniProt Q9HCU8)
inactive: lapatinib 0.014 | crizotinib 0.004 | duvelisib 0.046 | tozasertib 0.053 | doramapimod -0.152

PMS1 (UniProt P54277)
inactive: pictilisib -0.028 | crizotinib -0.004 | [1] 0.018 | duvelisib 0.018 | gandotinib -0.063 | tozasertib -0.053 | doramapimod -0.03 | bafetinib -0.064 | [2] -0.013

PNMA8A (UniProt Q86V59)
inactive: lapatinib -0.166 | pictilisib -0.033 | duvelisib 0.054 | tozasertib 0.05 | bafetinib 0.1
